Reference: PubChem BioAssay AID1347076 (National Center for Advancing Translational Sciences (NCATS), 2019)
Hit rate of the full screen: of about 400,000 compounds, about 13,000 (3.2%) were called active. Inconclusive means that the source gave no clear call. Such entries were picked first, then a sample of the others. The call rests on the fitted dose curve; in most records, active means well fitted cell-killing curve with a large enough effect; inconclusive means small, poorly fitted or top-dose-only effect, or effect the other way; inactive means flat fitted curve, though single readings scatter. Potencies beside an inconclusive call are fits to weak or partial responses and may not hold up.

assay: qHTS assay for MDR1-selective chemotherapeutics: Primary screen using the drug-selected MDR subline cells KB-V1; details: KB-V1 MDR cells viability, CellTiter-Glo, 72 h; activity change, negative = cytotoxicity: at 46.1 µM (top of the series); further: nearly all actives have a fitted effect of over 60% in size
Summary of the method: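 Luminescent ATP read-out (CellTiter-Glo, 10 min) measures survival of drug-selected KB-V1 MDR cells after 72 h, 37 degrees C compound exposure. Medium: phenol-red-free DMEM, 10% FBS. Values from fitted concentration-response curves.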
On the % scale 0 is the no-effect control and ±100 the full control effect; potency means the concentration at half of the fitted maximal effect.

Structure (SMILES) | Potency | activity change, negative = cytotoxicity
Cc1ccc(C)c(N2CCN(C(=O)c3cc4c(=O)n(Cc5cccs5)ccc4nc3C)CC2)c1 | inconclusive: 25.9 µM [cytotoxic, partial curve, poor fit] | –
NC(N)=Nc1nc(C2COc3ccccc3O2)cs1 (stereo not drawn) | inconclusive: 14.6 µM [cytotoxic, partial curve] | –
Cc1cccc(CN2CCc3c(OCC(=O)NCc4ccco4)cccc3C2=O)c1 | active: 14.6 µM | –
Cc1onc(-c2ccccc2Cl)c1C(=O)OCC(=O)Nc1cccc(S(=O)(=O)N(C)C)c1 | active: 8.2 µM | –
CCCn1c(SCC(=O)c2c(C)[nH]c(C)c2C(=O)OCC)nc2ccccc21 | inconclusive: 8.2 µM [cytotoxic, partial curve, poor fit] | –
CC(C)n1c(N2CCN(S(=O)(=O)c3cccc([N+](=O)[O-])c3)CC2)nc2ccccc21 | active: 18.4 µM | –
Cc1ccc(-c2nc3cccnc3o2)cc1NC(=O)COc1ccc(Cl)cc1C | inconclusive: 1.84 µM [cytotoxic, full curve] | –
CC(C)C(NS(=O)(=O)c1cccc2nsnc12)C(=O)NC1CCCCC1 (stereo not drawn) | inconclusive: 20.6 µM [cytotoxic, single point] | –
O=S(=O)(NCC1CCCO1)c1ccc(Cl)cc1 (stereo not drawn) | – | inactive: 23.3%
CCc1ccccc1NC(=O)c1ccc(NCCc2ccccc2)c([N+](=O)[O-])c1 | inconclusive: 2.59 µM [cytotoxic, full curve] | –
CSc1ccc(NC(=O)N2CC=C(n3c(=O)[nH]c4ccccc43)CC2)cc1 | active: 16.4 µM | –
COc1ccccc1OCC(O)CN1CCN(C(=O)c2ccccc2)CC1 (stereo not drawn) | – | inactive: -4.95%
COC(=O)c1ccc(C23CC4(C2)[C@H](CN(Cc2cccnc2)[C@@H]4c2ccccc2)C3c2ccc(C(F)(F)F)cc2)cc1 (stereo partly drawn) | inconclusive: 29.1 µM [cytotoxic, single point] | –
C=CCn1cnc2c(sc3nc(C)cc(C)c32)c1=O | inconclusive: 13 µM [cytotoxic, partial curve, poor fit] | –
OCCN1CCN(c2ncnc3c2ncn3[C@H]2CN(Cc3ccc(F)cc3)C[C@@H](CO)O2)CC1 | – | inactive: -3.94%
CCCCn1c(N)c(N(CC)C(=O)c2ccncc2)c(=O)[nH]c1=O | inconclusive: 9.2 µM [rising, partial curve] | –
CCOC(=O)c1c(C)nc2sc3c(=O)n(-c4ccc(C(C)=O)cc4)nnc3c2c1-c1ccc(OC)cc1 | inconclusive: 29.1 µM [cytotoxic, single point] | –
CCOc1ccc(CCn2c3c(c(=O)[nH]c2=O)C(NC(=O)c2ccccc2)(C(F)(F)F)C(=O)N3)cc1OCC (stereo not drawn) | – | inactive: 4.48%

A second format for part of the listing above.
Structure (SMILES)	Potency	activity change, negative = cytotoxicity
Cc1ccc(C)c(N2CCN(C(=O)c3cc4c(=O)n(Cc5cccs5)ccc4nc3C)CC2)c1	inconclusive: 25.9 µM [cytotoxic, partial curve, poor fit]	–
NC(N)=Nc1nc(C2COc3ccccc3O2)cs1 (stereo not drawn)	inconclusive: 14.6 µM [cytotoxic, partial curve]	–
